Values from PubChem BioAssay AID1259254 (NCATS, 2017)

Aim: 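Gene knock-downs that lead to re-replication, shown by excess G2 DNA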 (primary screen)
Cell system: human HCT116 colorectal cancer cells
Reagent: single siRNA against human genes
Time to read-out: 3 days
Measurement: 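Nuclei stained with Hoechst and imaged; cell-cycle phase assigned by DNA content; G2 share scaled per plate, non-targeting siRNA 0%, GMNN siRNA 100%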
Direction: G2 robust z-score: higher = more G2 cells, more excess DNA replication
Call rule: 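Active siRNAs have a G2 robust z of 5 or more median absolute deviations over the median, which in these data means about 38% or higher of GMNN control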
Shown is one part, drawn at random, of about 59,000 reagents. In the full data, about 1,550 (2.6%) were called active. 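G2 share is only a proxy for re-replication; each gene was hit by three separate siRNAs, and active genes were retested.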 Unmarked entries are inactive. Reagents against one gene are numbered here. Further read-outs or replicates are left out here. Reagent sequences are not shown. Not given: the amount of reagent.

Depletion of TLX3 #1 gave: G2 robust z-score 2.05.
For TLX3 #2, the entry reads G2 robust z-score 1.14.
Depletion of TLX3 #3 resulted in: G2 robust z-score -0.2.
Knock-down of KCNJ10 #1 came out at: G2 robust z-score 0.194.
KCNJ10 #2 scored G2 robust z-score 1.47.
Against KCNJ10 #3, the entry reads G2 robust z-score -0.422.
With knock-down of HTR3D #1, the screen gave G2 robust z-score 0.689.
HTR3D #2 gave G2 robust z-score 1.2.
Depletion of HTR3D #3 resulted in: G2 robust z-score 0.214.
Knock-down of GLYATL2 #1 came out at: G2 robust z-score -1.23.
GLYATL2 #2 showed G2 robust z-score 0.749.
With knock-down of GLYATL2 #3, the record shows G2 robust z-score 1.04.

Look-ups from the entries so far.
Value for KCNJ10 #3 under “G2 robust z-score”: -0.422
Under “G2 robust z-score”, KCNJ10 #2 is entered as 1.47
